These are yes or no findings as the source states them, for the method shown. In cells and extracts the contact can be indirect. Here binding means that the protein was enriched with, or labelled near, the bait; the list need not be complete.
Target: T1, NUDT13 immunoprecipitated from DLD-1 cells (human) (UniProt Q86X67)
T1 sequence: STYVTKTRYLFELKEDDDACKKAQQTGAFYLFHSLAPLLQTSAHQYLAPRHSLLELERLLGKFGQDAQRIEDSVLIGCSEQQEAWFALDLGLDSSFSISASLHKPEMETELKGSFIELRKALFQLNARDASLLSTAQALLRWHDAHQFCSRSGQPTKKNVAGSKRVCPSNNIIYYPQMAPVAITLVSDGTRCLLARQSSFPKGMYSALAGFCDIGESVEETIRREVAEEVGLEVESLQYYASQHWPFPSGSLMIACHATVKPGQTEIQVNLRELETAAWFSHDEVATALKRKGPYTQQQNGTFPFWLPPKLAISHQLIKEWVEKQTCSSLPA
Assay: affinity purification with mass spectrometry; NUDT13 immunoprecipitation from protein extracts of DLD-1 cells, silver stain, mass spectrum analysis

Chains of the proteins cited; added tags and fusions are not shown.
UniProt P06733: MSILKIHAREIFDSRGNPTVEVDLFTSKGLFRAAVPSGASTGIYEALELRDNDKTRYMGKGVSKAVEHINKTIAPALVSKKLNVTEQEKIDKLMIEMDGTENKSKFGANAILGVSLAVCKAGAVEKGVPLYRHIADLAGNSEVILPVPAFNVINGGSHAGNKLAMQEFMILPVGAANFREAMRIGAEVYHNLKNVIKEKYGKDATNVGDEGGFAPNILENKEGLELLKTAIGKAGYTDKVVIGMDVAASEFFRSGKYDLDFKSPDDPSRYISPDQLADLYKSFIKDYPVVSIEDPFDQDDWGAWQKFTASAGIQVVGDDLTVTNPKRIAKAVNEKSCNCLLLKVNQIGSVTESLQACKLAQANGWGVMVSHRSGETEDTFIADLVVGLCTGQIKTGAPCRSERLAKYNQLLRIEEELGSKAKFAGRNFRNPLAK

ENO1 (from UniProt P06733 1-434) was tested, and the binding was “binds”.

Reference: article PMC11967829
